Reference: patent publication US4609641 (dated 1986)

Assay: general procedure: solution-phase peptide synthesis; EDC/HBT; DPPA
Conditions: coupling step

N^α -[4(S)-(tert-Butoxycarbonyl-L-phenylalanyl-L-phenylalanylamino)-3(S)-hydroxy-6-methylheptyl]-N^α -isobutoxycarbonyl-L-leucine benzylamide
final HPLC purity: 98%
